Results taken from patent publication US20070136826A1 (Biogen, published 2007).
No constants are given. Whether binding was seen depends on the method and setting. Some binding calls cover weakened binding; strength is not graded here. For some of these results: Tags and fused reporters may be left off the sequences shown.

B1: 18B12 IgG2c isotype switch variant (antibody, V domains shown)
VH: QVQLQQPGAELVRPGTSVKLSCKASGYTFTSYWMHWIKQRPGQGLEWIGVIDPSDNYTKYNQKFKGKATLTVDTSSSTAYMQLSSLTSEDSAVYFCAREGYYGSSPWFAYWGQGTLVTVSS
VL: QIVMSQSPAILSASPGEKVTMTCRARSSVSYIHWYQQKPGSSPKPWIYATSNLASGVPGRFSGSGSGTSYSLTITRVEAEDAATYYCQQWSSKPPTFGGGTKLEIKR
B2: 18B12 IgG2a engineered mouse IgG2a anti-mouse CD20 monoclonal antibody (antibody, V domains shown)
VH: QVQLQQPGAELVRPGTSVKLSCKASGYTFTSYWMHWIKQRPGQGLEWIGVIDPSDNYTKYNQKFKGKATLTVDTSSSTAYMQLSSLTSEDSAVYFCAREGYYGSSPWFAYWGQGTLVTVSS
VL: QIVMSQSPAILSASPGEKVTMTCRARSSVSYIHWYQQKPGSSPKPWIYATSNLASGVPGRFSGSGSGTSYSLTITRVEAEDAATYYCQQWSSKPPTFGGGTKLEIKR

Key:
[1] = target: T1, Mouse CD20 (endogenous, on mouse B cell lines and splenic B cells) (mouse) (UniProt P19437); assay: flow cytometry on cells
T1 sequence: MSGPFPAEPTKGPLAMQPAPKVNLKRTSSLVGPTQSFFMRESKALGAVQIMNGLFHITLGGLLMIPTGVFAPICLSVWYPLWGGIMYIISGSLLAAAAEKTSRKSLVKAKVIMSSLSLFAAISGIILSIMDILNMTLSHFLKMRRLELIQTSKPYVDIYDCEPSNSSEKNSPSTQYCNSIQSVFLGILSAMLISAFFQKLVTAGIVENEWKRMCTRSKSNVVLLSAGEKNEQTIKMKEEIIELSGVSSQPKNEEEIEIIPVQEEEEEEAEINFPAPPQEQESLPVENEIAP

[2] = target: T1, Mouse CD20 (endogenous, on mouse B cell lines and splenic B cells) (mouse); assay: flow cytometry on mouse B cell lines and splenocytes
[3] = target: T1, Mouse CD20 (endogenous, on mouse B cell lines and splenic B cells) (mouse); assay: flow cytometry on CD19+ splenocytes of wild type C57BL/6 mice, isotype-specific biotin secondary and APC-streptavidin
[4] = target: T2, Mouse CD20 with C-terminal V5 peptide tag, on transfected 300.18 cells (mouse) (UniProt P19437); assay: flow cytometry on 300.18-CD20 cells, anti-mouse kappa detection
T2 sequence: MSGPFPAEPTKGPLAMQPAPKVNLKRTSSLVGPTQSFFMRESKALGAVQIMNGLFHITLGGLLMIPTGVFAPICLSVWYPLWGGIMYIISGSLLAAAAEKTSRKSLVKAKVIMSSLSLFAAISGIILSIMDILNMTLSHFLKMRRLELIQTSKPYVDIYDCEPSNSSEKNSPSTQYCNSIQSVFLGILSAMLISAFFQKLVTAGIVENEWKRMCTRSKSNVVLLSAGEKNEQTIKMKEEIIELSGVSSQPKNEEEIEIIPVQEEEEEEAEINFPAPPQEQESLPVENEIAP

| Binder | binding [1] | binding [2] | binding [3] | binding [4] |
| --- | --- | --- | --- | --- |
| B1 | binds | binds | – | – |
| B2 | – | – | binds | binds |
